We go through 18 molecules from publication PMC10163288.

The list shows a part of the results.

B1: il2ra_site2_3nfp_normal_mot_HHH_b2_05281_000000198_0001_39_56_H_._HHH_b2_04257_0001_0000800084_0000001_0 (protein)
chain: SSSSDKEERIEKLIEEAEKALEEGNPEEAQRILAEATRLAFESNNPRLFFRIAELAYKVYSSSSS
B2: il2ra_site1_2b5i_normal_mot_a7d4ab743ae57deeac5d741f7278d18b_0001_af2_000000162_0001_36_49_H_._HHH_b1_06005_af2_0001_0000100005_0000001_0 (protein)
chain: SSSSDDSEIALELAERHLKEARERGDEILLENVFRLARKDLERLGDPEAVEELEEFLERLSSSSS
B3: il2ra_site2_2erj_normal_mot_HHH_b2_00494_000000216_0001_41_54_H_._HHH_b1_07293_af2_0001_0000800113_0000001_0 (protein)
chain: SSSSNEDLKRAYELAVRILELIHRGDEEEAKELLEELERLAEKFNSENLREIIRFLEQQLSSSSS
B4: il2ra_site1_3nfp_sap_17_mot_HHH_b2_05178_af2_000000174_0001_1_19_H_._HHH_b2_00929_af2_0001_0000100002_0000001_1_0001_af2pred_0001_af2pred_1 (protein)
chain: SSSSSDEHRQALRISREIRELLKEGDPEEVEELLKELEELAKKVNDEAAKILVERLKKKLESSSS
B5: il2ra_site2_2erj_sap_27_mot_HHH_b1_08185_000000063_0001_41_55_H_._HHH_b1_03158_0001_0000300009_0000001_0_0001_af2pred_0001_af2pred (protein)
chain: SSSDALERAREVLKEVLELLRKGNDEEAKKLLEEAREILEELGDKTALRLIEQALRLLEKLSSSS
B6: il2ra_site1_2b5i_sap_13_mot_HHH_b2_08121_af2_000000082_0001_40_52_H_._HHH_b2_04656_0002_0000400019_0000001_0_0001_af2pred_dldesign_0_af2pred (protein)
chain: SSSSSDVYAEVERLFKEAQKLWREGKKEEAKKVLEEALKLAKAANDTKIVAELERFLKLLSSSSS
B7: il2ra_site1_3nfp_normal_mot_HHH_b1_02869_af2_000000018_0001_41_55_H_._HEEHE_2123_0001_0000100006_0000001_0 (protein)
chain: EEELDVRHLARALARAARVPKVEIEIENNRVTVTVEGDDEAARRALEAAEQFWRLLGYEVELEIE
B8: il2ra_site1_3nfp_sap_22_mot_1d0af4279e6cd48282cc3e51f763a6be_0001_000000077_0001_33_47_H_._HHH_b2_02973_0001_0000500016_0000001_0_0001 (protein)
chain: SSSSSNSAERLERLLREAWRAAKEGDPEEAKKILEEALELAEEAGNKSAARSIRIALEMLSSSSS
B9: il2ra_site1_1z92_normal_mot_HHH_b2_07822_af2_000000141_0001_42_54_H_._HHH_b1_04440_0001_0000300014_0000001_0 (protein)
chain: SSSSSTDELIEERFEFAAENFKLSDDEHALRWALELLKALAKLLNDPELERRVKELEEEISSSSS
B10: il2ra_site2_3nfp_normal_mot_HHH_b2_07840_000000026_0001_18_34_H_._HHH_b2_03668_0001_0000300078_0000001_0 (protein)
chain: SSSSDEERLEELLEKVHELIKEGDEEEAKKLLEEATQIAYERRDHEAFAIITDLLALLAQASSSS
B11: il2ra_site1_1z92_normal_mot_HHH_b2_06170_af2_000000251_0001_1_19_H_._HEEHE_2247_0001_0000200017_0000001_0 (protein)
chain: DLRRELIELAKELSKELGVDAVLVVVQNGTVQVLVHADNEEAEKLLRTLEEYAEELGLEVRLRIR
B12: il2ra_site1_1z92_normal_mot_HHH_b2_05172_af2_000000284_0001_1_18_H_._HHH_b1_06259_0001_0000100001_0000001_0_af2pred_0001_af2pred (protein)
chain: SSSSDEEERLALEIVIRLAREFKLDLEQIKILTEVALELLERGLSEEEIEEILEEVAERLSSSSS
B13: il2ra_site2_3nfp_normal_mot_HHH_b1_01086_000000225_0001_20_36_H_._HHH_b1_00346_af2_0001_0000400008_0000001_0 (protein)
chain: SSSSDEEENEELLEELRRLIEEGDEERARKLAEEASNLLYENNDFEAFAKLADLVFLIKQLSSSS
B14: il2ra_site2_2erj_sap_25_mot_HHH_b1_02841_000000060_0001_43_57_H_._HHH_b1_02445_af2_0001_0000300014_0000001_0_0001 (protein)
chain: SSSSDTEERVEEVLEEARKAYEEGDLHEVYRLAVEAMRIASENNDQEALELVLRFIEELSSSSSS
B15: il2ra_site2_2erj_normal_mot_HHH_b1_04103_000000259_0001_21_37_H_._HHH_b2_01479_af2_0001_0000100001_0000001_0_1_af2pred_0001_1_af2pred_swapped (protein)
chain: SSSSDDRVIEAAALAIELAFRLLERGDEETAKELMELFQELARHGDPELAEELREFIEEFSSSSS
B16: il2ra_site2_2erj_sap_23_mot_HHH_b2_01204_af2_000000051_0001_19_34_H_._HHH_b2_01135_0001_0000300045_0000001_0_0001 (protein)
chain: SEEVLIKRFIEVQARDAGVPHVEVEIENGTFSVTVEGDDEAAKQVLEAARMVAEVLGVPIEVEIE
B17: il2ra_site1_3nfp_sap_10_mot_HHH_b1_01159_af2_000000107_0001_1_20_H_._HHH_b1_00500_0001_0000300009_0000001_0_0001_af2pred_0001_af2pred_1_swapped (protein)
chain: SSSSDFERLRELIEEAQKLLKEGNPEEAREVLEEAREIAEKLGDKIAREWVERLLELAERRSSSS
B18: il2ra_site1_3nfp_normal_mot_HHH_b1_07644_af2_000000110_0001_40_57_H_._HHH_b1_04414_0001_0000200010_0000001_0 (protein)
chain: SSSSDQELAKLADEIWELIREGDIEEARRVLEEAERLAEELGDEIAKRLLRQLQEALERRSSSSS

The assay addresses il2ra, P01589. As to the kind of experiment: yeast display titration.
For the molecule B1, the “apparent Kd” value is “inactive: no binding seen”.

For B2, the “apparent Kd” value is “inactive: no binding seen”. For B3, the “apparent Kd” value was “inactive: no binding seen”.

For B4, the “apparent Kd” value is “inactive: no binding seen”.

As for B5, the “apparent Kd” value was “inactive: no binding seen”. Regarding B6, the “apparent Kd” value was “inactive: no binding seen”. To B7 belongs “inactive: no binding seen”; to B8, “inactive: no binding seen”. To B9 belongs “inactive: no binding seen”; to B10, “inactive: no binding seen”; to B11, “inactive: no binding seen”. In the case of B12 it was “inactive: no binding seen”; in that of B13, “inactive: no binding seen”. B14: the “apparent Kd” value is “inactive: no binding seen”. In the case of B15 it was “inactive: no binding seen”; in that of B16, “inactive: no binding seen”; in that of B17, “inactive: no binding seen”. For the molecule B18, the “apparent Kd” value was “inactive: no binding seen”.
